Results are given in words; binding and its absence hold for the method and conditions named. Binding seen in cells or lysates may run through a third protein. These calls come from enrichment with a bait or labelling near it, and not all partners need be listed. Tags and fused reporters may be left off the sequences shown.
How the values were obtained:
[1] = target: T1, FLAG-Cry1 (pcDNA3-2xFlag-mCRY1) (mouse) (UniProt P97784); assay: affinity purification with mass spectrometry; IP of the FLAG tag from lysates of 293T cells expressing pcDNA3-2xFLAG empty, Cry1 or Cry2, with or without co-expressed Per2; MudPIT LC-MS/MS, triplicate, enriched partners by PatternLab
T1 sequence: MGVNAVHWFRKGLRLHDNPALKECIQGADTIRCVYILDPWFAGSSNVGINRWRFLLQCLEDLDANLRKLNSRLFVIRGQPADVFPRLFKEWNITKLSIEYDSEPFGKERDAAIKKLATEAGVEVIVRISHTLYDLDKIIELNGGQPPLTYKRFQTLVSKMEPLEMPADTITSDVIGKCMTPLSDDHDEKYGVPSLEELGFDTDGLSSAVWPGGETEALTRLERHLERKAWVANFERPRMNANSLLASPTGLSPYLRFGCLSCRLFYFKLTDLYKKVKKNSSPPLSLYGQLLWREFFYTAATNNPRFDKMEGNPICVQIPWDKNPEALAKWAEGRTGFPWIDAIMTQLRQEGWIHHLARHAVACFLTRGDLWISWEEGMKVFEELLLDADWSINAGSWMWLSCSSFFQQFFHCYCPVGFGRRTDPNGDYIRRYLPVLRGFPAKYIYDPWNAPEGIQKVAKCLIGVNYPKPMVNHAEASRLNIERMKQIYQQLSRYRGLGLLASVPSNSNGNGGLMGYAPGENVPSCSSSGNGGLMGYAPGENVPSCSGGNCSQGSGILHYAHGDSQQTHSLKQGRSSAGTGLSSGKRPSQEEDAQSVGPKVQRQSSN

Sequences of proteins named here, by UniProt entry; tags and fusion partners are left off.
UniProt P78527: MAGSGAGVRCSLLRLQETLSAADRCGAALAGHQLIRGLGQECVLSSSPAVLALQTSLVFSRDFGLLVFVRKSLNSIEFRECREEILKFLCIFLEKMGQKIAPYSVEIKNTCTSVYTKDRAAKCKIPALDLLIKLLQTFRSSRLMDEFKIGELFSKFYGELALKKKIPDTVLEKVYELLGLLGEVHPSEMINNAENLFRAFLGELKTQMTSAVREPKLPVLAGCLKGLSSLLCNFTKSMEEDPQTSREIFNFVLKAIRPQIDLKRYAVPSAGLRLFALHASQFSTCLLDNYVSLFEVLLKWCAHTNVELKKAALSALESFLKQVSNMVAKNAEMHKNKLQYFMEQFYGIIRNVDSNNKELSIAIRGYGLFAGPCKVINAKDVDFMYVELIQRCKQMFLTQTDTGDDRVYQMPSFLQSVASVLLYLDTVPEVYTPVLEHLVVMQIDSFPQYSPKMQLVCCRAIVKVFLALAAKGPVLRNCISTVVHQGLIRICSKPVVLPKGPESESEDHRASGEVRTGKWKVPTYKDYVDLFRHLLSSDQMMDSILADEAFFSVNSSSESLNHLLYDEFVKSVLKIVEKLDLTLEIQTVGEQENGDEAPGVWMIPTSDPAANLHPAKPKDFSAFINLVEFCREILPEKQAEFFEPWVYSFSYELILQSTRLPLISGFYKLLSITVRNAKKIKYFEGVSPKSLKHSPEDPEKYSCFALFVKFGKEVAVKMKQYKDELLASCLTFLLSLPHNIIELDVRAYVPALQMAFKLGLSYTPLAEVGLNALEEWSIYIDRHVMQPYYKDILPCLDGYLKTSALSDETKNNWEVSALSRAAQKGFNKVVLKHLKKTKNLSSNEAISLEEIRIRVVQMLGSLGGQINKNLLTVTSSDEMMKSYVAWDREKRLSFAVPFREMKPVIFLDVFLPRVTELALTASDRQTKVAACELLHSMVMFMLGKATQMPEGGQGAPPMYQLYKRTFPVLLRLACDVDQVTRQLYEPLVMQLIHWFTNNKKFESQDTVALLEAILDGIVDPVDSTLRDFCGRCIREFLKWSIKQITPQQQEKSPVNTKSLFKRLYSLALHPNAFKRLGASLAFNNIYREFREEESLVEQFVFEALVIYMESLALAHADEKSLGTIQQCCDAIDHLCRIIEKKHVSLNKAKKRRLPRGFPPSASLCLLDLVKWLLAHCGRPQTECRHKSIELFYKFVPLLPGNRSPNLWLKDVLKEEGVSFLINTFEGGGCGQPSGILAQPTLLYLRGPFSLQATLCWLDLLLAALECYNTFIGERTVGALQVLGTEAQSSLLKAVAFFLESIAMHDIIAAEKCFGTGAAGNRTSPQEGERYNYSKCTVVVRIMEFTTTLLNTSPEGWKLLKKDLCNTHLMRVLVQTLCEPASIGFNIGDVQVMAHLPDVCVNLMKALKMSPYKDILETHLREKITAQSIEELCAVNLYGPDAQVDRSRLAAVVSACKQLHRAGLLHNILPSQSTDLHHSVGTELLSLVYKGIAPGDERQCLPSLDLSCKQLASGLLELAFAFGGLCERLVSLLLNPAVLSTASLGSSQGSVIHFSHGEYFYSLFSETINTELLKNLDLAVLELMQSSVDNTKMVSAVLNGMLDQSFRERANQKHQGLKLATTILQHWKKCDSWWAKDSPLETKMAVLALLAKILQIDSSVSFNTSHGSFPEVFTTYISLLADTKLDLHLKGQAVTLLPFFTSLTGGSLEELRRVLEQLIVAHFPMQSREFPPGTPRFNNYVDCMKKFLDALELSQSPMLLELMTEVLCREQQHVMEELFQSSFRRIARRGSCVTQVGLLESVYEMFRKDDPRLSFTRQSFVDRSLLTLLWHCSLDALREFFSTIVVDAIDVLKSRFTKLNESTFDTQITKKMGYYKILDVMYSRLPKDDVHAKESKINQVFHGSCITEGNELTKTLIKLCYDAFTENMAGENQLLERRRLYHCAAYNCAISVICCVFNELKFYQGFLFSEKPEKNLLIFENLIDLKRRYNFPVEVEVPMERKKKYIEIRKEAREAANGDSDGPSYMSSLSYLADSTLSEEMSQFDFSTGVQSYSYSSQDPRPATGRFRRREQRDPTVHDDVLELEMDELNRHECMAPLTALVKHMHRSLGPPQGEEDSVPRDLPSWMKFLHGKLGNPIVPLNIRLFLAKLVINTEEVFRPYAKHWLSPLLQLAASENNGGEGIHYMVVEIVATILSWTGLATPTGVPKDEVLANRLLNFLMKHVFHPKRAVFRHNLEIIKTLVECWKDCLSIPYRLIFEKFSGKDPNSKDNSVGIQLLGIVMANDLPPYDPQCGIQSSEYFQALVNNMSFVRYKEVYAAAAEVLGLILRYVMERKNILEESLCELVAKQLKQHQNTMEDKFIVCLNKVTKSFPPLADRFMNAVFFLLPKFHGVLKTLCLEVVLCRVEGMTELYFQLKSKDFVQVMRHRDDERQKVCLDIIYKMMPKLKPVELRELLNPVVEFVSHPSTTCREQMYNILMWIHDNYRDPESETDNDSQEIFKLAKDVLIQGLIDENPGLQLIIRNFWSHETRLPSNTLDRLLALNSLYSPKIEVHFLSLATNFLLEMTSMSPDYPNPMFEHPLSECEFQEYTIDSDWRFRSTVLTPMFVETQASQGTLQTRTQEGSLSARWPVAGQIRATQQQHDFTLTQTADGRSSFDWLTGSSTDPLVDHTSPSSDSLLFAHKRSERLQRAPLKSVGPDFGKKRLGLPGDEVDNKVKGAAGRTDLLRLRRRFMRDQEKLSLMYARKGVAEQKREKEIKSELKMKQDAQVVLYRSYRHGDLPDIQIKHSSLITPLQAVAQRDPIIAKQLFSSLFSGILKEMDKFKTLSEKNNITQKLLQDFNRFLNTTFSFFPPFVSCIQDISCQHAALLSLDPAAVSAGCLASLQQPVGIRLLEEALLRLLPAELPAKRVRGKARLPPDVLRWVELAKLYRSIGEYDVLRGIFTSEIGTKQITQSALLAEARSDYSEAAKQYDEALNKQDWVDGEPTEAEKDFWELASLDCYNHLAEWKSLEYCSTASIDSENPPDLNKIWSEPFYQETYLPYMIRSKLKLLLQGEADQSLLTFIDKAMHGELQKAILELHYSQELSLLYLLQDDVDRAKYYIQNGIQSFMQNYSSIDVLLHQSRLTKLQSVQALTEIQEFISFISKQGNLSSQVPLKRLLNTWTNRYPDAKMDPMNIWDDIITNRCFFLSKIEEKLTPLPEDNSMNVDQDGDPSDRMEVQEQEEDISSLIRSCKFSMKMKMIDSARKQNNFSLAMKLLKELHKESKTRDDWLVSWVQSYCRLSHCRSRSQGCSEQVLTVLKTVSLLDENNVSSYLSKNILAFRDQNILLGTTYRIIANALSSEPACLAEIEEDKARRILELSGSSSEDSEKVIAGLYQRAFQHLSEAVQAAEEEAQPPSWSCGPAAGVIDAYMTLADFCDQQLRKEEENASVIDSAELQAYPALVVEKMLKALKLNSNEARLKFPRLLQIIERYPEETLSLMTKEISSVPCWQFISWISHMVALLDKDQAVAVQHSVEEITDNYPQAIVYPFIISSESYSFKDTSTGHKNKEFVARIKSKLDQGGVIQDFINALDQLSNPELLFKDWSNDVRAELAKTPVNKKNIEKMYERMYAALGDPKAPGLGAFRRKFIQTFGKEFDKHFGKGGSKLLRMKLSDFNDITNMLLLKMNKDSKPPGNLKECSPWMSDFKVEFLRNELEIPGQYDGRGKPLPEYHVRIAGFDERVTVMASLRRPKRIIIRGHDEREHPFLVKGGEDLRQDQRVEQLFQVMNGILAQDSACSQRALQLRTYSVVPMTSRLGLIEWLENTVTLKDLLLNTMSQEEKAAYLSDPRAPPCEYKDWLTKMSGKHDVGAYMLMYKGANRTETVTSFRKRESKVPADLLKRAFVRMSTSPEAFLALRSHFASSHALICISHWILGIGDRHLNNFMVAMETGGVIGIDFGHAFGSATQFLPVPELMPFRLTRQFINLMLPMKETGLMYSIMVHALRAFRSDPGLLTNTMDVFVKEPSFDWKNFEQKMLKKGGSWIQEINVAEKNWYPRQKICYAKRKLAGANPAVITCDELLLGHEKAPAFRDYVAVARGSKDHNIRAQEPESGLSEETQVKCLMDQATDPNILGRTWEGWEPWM
UniProt Q93009: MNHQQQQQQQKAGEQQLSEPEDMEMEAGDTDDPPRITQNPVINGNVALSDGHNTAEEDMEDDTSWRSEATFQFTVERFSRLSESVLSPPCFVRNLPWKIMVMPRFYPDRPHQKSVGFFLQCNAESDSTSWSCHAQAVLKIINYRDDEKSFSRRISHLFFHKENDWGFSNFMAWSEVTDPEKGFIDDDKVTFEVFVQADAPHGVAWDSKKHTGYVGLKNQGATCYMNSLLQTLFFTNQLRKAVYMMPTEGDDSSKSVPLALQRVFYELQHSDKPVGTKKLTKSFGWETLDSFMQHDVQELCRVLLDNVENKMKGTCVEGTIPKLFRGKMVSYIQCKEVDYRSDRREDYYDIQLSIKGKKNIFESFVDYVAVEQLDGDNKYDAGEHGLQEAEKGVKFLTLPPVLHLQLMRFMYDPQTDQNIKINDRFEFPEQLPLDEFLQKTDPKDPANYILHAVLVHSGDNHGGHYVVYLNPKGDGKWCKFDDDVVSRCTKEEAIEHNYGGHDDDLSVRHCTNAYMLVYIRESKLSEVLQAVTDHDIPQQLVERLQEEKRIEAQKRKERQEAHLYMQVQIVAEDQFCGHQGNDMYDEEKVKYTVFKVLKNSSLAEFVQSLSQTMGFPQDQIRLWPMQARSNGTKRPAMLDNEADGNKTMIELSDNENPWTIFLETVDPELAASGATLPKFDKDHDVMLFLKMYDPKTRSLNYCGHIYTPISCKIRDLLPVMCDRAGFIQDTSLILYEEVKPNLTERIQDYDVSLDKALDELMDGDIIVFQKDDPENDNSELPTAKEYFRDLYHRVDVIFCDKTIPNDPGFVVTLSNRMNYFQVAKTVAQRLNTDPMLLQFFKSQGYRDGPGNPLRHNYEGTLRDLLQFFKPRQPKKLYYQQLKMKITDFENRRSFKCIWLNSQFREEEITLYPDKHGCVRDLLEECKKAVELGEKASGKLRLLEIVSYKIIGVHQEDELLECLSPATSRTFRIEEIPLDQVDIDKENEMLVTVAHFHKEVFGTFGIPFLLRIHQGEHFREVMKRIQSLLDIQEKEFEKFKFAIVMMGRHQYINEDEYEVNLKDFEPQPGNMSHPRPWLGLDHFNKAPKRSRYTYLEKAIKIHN

[2] = target: T2, FLAG-Cry2 (pcDNA3-2xFlag-mCRY2) (mouse) (UniProt Q9R194); assay: as above
T2 sequence: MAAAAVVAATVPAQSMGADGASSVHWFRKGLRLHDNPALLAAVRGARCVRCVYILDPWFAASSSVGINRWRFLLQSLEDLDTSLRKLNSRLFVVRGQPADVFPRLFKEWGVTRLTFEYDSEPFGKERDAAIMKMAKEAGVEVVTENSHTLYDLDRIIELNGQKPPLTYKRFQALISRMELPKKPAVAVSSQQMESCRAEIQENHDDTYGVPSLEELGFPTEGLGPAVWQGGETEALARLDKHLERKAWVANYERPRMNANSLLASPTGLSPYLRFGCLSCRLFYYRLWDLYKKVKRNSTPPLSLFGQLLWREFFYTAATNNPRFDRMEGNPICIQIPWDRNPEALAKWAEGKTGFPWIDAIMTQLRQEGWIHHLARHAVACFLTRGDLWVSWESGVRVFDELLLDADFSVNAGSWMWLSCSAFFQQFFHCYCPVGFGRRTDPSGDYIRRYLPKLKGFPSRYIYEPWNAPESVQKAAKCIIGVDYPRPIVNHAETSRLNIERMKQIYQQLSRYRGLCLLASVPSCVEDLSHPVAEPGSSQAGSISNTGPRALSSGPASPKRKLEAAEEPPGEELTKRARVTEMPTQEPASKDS

Substance	binding [1]	binding [2]
DNA-PKcs, endogenous in 293T cells (from UniProt P78527 1-4128) (enzyme)	binds	binds
Herpes virus associated ubiquitin-specific protease (Hausp), endogenous in 293T cells (from UniProt Q93009 1-1102) (enzyme)	binds	

Source: PMC4352707
